Measurements reported in article PMC13212363.
Results are given in words; binding and its absence hold for the method and conditions named. Binding seen in cells or lysates may run through a third protein. Some results given as binding are weak or reduced against the parent protein; the word gives no strength. Where a sequence is shown, tags or fusion partners need not be part of it.

Chains of the proteins cited; added tags and fusions are not shown. Lines headed by an entry give the natural chain unless they say otherwise; changes in a name come on top.
UniProt P67775: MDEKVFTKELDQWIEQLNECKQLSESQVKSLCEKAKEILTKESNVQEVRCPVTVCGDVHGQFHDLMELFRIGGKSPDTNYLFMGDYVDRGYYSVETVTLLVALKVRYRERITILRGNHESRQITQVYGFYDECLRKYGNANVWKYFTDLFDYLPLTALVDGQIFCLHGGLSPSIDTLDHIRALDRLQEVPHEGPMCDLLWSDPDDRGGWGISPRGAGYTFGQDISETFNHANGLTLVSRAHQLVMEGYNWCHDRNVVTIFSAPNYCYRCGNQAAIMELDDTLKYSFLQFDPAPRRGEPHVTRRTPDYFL

Biological target: T1, NSF-tagged PPP2R2B (UniProt Q00005)
T1 sequence: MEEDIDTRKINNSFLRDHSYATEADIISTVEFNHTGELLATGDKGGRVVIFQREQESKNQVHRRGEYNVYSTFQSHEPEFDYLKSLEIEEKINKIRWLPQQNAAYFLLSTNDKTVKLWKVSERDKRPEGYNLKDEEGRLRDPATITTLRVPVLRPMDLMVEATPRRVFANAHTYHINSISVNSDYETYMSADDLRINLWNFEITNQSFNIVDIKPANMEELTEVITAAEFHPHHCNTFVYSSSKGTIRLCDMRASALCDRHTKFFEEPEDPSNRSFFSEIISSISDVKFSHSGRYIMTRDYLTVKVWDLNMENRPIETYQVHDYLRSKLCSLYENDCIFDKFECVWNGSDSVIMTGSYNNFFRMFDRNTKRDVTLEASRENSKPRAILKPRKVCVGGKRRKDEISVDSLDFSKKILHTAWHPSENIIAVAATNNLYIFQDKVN
Test: pull-down; NSF-tagged B subunit co-expressed with myc-tagged PPP2CA constructs in HEK293; lysate (50 mM Tris-HCl 7.5, 150 mM NaCl, 1 mM EDTA, 2.5 mM EGTA, 1% NP-40) on streptavidin beads for 4 h, washed three times; western blot

Substance	binding
myc-tagged T304A-PPP2CA (from UniProt P67775 1-309) (enzyme)	binds
myc-tagged WT-PPP2CA (from UniProt P67775 1-309) (enzyme)	binds
